At least one structure is not confirmed: it was looked up by name or label, or the drawing left a doubt.
Biological target: T1, progesterone receptors (Rattus norvegicus, UniProt Q63449)
T1 construct: from tissue; host or cells: endometrium/uterus of pregnant female Wistar Han rats (in vivo)
T1 sequence (Q63449 1-923): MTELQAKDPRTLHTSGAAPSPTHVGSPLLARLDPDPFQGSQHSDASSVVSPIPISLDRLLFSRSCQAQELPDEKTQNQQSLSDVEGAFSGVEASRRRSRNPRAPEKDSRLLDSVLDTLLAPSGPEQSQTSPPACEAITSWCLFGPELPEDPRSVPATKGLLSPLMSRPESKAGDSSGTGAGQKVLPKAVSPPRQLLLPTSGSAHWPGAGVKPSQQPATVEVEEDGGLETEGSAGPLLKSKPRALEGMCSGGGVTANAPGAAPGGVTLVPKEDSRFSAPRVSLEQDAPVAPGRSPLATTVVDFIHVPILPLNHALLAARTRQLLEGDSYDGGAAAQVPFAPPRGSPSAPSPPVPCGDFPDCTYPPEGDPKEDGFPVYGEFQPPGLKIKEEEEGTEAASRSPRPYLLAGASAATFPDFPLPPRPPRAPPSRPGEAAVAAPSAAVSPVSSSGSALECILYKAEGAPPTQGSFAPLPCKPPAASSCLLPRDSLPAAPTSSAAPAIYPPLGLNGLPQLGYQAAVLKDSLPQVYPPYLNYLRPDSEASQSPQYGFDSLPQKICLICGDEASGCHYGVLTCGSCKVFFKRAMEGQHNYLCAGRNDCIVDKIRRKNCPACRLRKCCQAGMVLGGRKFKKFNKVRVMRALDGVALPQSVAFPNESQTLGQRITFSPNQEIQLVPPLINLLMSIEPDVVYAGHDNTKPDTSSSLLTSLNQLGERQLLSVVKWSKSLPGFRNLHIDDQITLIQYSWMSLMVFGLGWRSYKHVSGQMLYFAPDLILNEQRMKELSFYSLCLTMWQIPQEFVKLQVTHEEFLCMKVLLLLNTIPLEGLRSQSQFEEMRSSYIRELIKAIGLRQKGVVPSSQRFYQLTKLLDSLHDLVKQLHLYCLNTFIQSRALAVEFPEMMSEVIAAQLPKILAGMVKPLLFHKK
Test: Abortion test in female rats (termination of early pregnancy)
Type: in vivo, Wistar Han rat
Settings: for Complete abortion / Pathological nidation sites / Total rate of abortion: p.o., day 5-7 of pregnancy, N=6

C[C@]12C[C@H](c3ccc(S(C)(=O)=O)cc3)C3=C4CC[C@@H](O)C=C4CC[C@H]3[C@@H]1CC[C@@]2(O)C(F)(F)C(F)(F)F [Compound 1, (3α,11β,17β)-11-[4-(methylsulfonyl)phenyl]-17-(pentafluoroethyl)estra-4,9-diene-3,17-diol]
animals showing pathological implantation sites (oral, 0.2 mg/kg/d): one animal out of six | Complete abortion (0.05 mg/kg*day): 0% | Pathological nidation sites (0.05 mg/kg*day): 0% | Total rate of abortion (0.05 mg/kg*day): 0% | Complete abortion (0.2 mg/kg*day): 0% | Pathological nidation sites (0.2 mg/kg*day): 17% | Total rate of abortion (0.2 mg/kg*day): 17% | Complete abortion (0.5 mg/kg*day): 50% | Pathological nidation sites (0.5 mg/kg*day): 50% | Total rate of abortion (0.5 mg/kg*day): 100% | Complete abortion (1.0 mg/kg*day): 83% | Pathological nidation sites (1.0 mg/kg*day): 17% | Total rate of abortion (1.0 mg/kg*day): 100% | Complete abortion (2.0 mg/kg*day): 100% | Pathological nidation sites (2.0 mg/kg*day): 0% | Total rate of abortion (2.0 mg/kg*day): 100% | Complete abortion (5.0 mg/kg*day): 100% | Pathological nidation sites (5.0 mg/kg*day): 0% | Total rate of abortion (5.0 mg/kg*day): 100% | Complete abortion (10.0 mg/kg*day): 100% | Pathological nidation sites (10.0 mg/kg*day): 0% | Total rate of abortion (10.0 mg/kg*day): 100%

— patent publication US10894805B2, “Prodrugs of the selective progesterone receptor modulator (SPRM) (11β,17β)-17-Hydroxy-11-[4-(methylsulphonyl)phenyl] -17-(pentafluoroethyl)estra-4,9-dien-3-one” (BAYER PHARMA AKTIENGESELLSCHAFT, priority 2016, dated 2021)
